Data reported in patent US4113736A, “2-Phenyl-indole derivatives” (priority 1975, dated 1978).

Key:
[1] = Static thermostability of stabilized polyvinyl chloride resin, simplified method with GARDNER sub-scale, 210° C.
[2] = Static thermostability of stabilized polyvinyl chloride resin, GARDNER Scale comparator, 185° C.
Procedure: The stabilizing power of the substances of the invention was studied by determining the static thermostability of the following resin: […]
Polyvinyl chloride resin
Calcium-12-hydroxy-stearate
Stabilizer from 0.1 to 1
SL 2016 represents a solution of zinc-2-ethyl-hexanoate in a mixture of aromatic hydrocarbons boiling between 158° and 184° C.
The different ingredients were mixed and calendered in a mixer of which the cylinders were heated to 160° C.
The rigid sheets so obtained were then heated in a oven to a temperature of 185° or 210° C., until incipient carbonization.
A oven with a rotating drum, ventilated and equipped with a thermostat was used for this operation.
In the trials described hereunder the behaviour of the sheets containing one of the stabilizers to be tested was compared to that of sheets of the same formula but containing 2-phenyl-indole as stabilizer.
Comparison can be made by one of two methods, namely:
(1) The coloration of the sheets, of which samples were removed from the oven at fixed intervals, was compared to a standard scale of coloration, known as the GARDNER Scale, and expressed in terms of the reference figures of the GARDNER Scale.
Comparisons were made with a GARDNER Scale comparator which contains 18 filters of colored glass and which offers the possibility of observing simultaneously by transparency and in a limited field of view both the sheet and the reference filters.
It may happen that the color of the sheets is far removed from that of the GARDNER Scale, in which case comparison is difficult, if not impossible.
The following results were obtained at a temperature of 185° C., using the method described above: […]

| Structure (SMILES) | Coloration of the sheets ([1]; 0 minutes) [GARDNER degrees] | Coloration of the sheets ([1]; 3 minutes) [GARDNER degrees] | Coloration of the sheets ([1]; 6 minutes) [GARDNER degrees] | Coloration of the sheets ([1]; 9 minutes) [GARDNER degrees] | Coloration of the sheets ([1]; 12 minutes) [GARDNER degrees] | Coloration of the sheets ([1]; 15 minutes) [GARDNER degrees] | Coloration of the sheets ([1]; 18 minutes) | Coloration of the sheets ([2]; 0 minutes) [GARDNER degrees] | Coloration of the sheets ([2]; 6 minutes) [GARDNER degrees] | Coloration of the sheets ([2]; 12 minutes) [GARDNER degrees] | Coloration of the sheets ([2]; 18 minutes) [GARDNER degrees] | Coloration of the sheets ([2]; 24 minutes) [GARDNER degrees] | Coloration of the sheets ([2]; 30 minutes) [GARDNER degrees] | Coloration of the sheets ([2]; 36 minutes) [GARDNER degrees] | Coloration of the sheets ([2]; 42 minutes) [GARDNER degrees] | Coloration of the sheets ([2]; 48 minutes) [GARDNER degrees] | Coloration of the sheets ([2]; 54 minutes) | Coloration of the sheets ([2]; 60 minutes) |
| --- | --- | --- | --- | --- | --- | --- | --- | --- | --- | --- | --- | --- | --- | --- | --- | --- | --- | --- |
| COc1ccc2cc(-c3ccccc3)[nH]c2c1 [Stabilizer 1, 2-phenyl-6-methoxy-indole] | 1 | 1 | 2 | 3 | 4 | 10 | burnt | – | – | – | – | – | – | – | – | – | – | – |
| Oc1ccc2cc(-c3ccccc3)[nH]c2c1 [Stabilizer 2, 2-phenyl-6-hydroxy-indole] | – | – | – | – | – | – | – | 1 | 1 | 2 | 4 | 9 | 11 | 12 | 14 | 14 | 15 GARDNER degrees | 19 GARDNER degrees |
| CCCCCCCCCCCCOc1ccc2[nH]c(-c3ccccc3)cc2c1 [Stabilizer 3, 2-phenyl-5-dodecyloxy-indole] | 1 | 1 | 2 | 3 | 6 | 11 | 15 GARDNER degrees | – | – | – | – | – | – | – | – | – | – | – |
| COc1ccc(-c2cc3cc(C)ccc3[nH]2)cc1 [Stabilizer 4, 2-(4'-methoxy-phenyl)-5-methyl-indole] | – | – | – | – | – | – | – | 1 | 1 | 2 | 5 | 8 | 10 | 11 | 13 | 14 | 15 GARDNER degrees | burnt |
| COc1ccc(-c2cc3cccc(C)c3[nH]2)cc1 [Stabilizer 5, 2-(4'-methoxy-phenyl)-7-methyl-indole] | 1 | 2 | 3 | 8 | 10 | 11 | burnt | – | – | – | – | – | – | – | – | – | – | – |
| COc1ccc(-c2cc3ccc(C)cc3[nH]2)cc1 [Stabilizer 6, 2-(4'-methoxy-phenyl)-6-methyl-indole] | – | – | – | – | – | – | – | 1 | 1 | 2 | 4 | 7 | 9 | 11 | 12 | 13 | 15 GARDNER degrees | burnt |
| COc1ccc(-c2cc3cc(C)cc(C)c3[nH]2)cc1 [Stabilizer 7] | – | – | – | – | – | – | – | 1 | 1 | 3 | 6 | 12 | 14 | 15 | 15 | 16 | 18 GARDNER degrees | burnt |
| COc1cc(-c2cc3cccc(C)c3[nH]2)ccc1O [Stabilizer 8] | – | – | – | – | – | – | – | 1 | 1 | 2 | 5 | 10 | 11 | 11 | 13 | 13 | 14 GARDNER degrees | 17 GARDNER degrees |
| COc1ccc(-c2cc3cccc(C)c3[nH]2)cc1C [Stabilizer 9] | – | – | – | – | – | – | – | 1 | 1 | 3 | 6 | 10 | 11 | 11 | 15 | 15 | 18 GARDNER degrees | burnt |
| COc1ccc(-c2cc3ccc(C)c(C)c3[nH]2)cc1 [Stabilizer 10] | – | – | – | – | – | – | – | 2 | 2 | 4 | 7 | 11 | 12 | 13 | 15 | 16 | 18 GARDNER degrees | burnt |
| COc1ccc(-c2cc3cccc(C)c3[nH]2)c(OC)c1 [Stabilizer 11] | – | – | – | – | – | – | – | 4 | 4 | 5 | 9 | 11 | 15 | 15 | 16 | 17 | burnt | burnt |
| CCCCCCCCCCCCOc1ccc(-c2cc3ccc(C)cc3[nH]2)cc1 [Stabilizer 12] | 1 | 2 | 2 | 3 | 11 | 14 | burnt | – | – | – | – | – | – | – | – | – | – | – |
| COc1cc(-c2cc3ccc(C)cc3[nH]2)ccc1O [Stabilizer 13] | – | – | – | – | – | – | – | 1 | 1 | 2 | 4 | 6 | 10 | 10 | 11 | 15 | 15 GARDNER degrees | burnt |
| CCCCCCCCCCCCOc1ccc(-c2cc3cccc(C)c3[nH]2)cc1C [Stabilizer 14] | 1 | 1 | 3 | 4 | 15 | 15 | burnt | – | – | – | – | – | – | – | – | – | – | – |
| COc1cc(-c2cc3cc(C)ccc3[nH]2)ccc1O [Stabilizer 15] | – | – | – | – | – | – | – | 1 | 1 | 2 | 4 | 8 | 10 | 11 | 11 | 11 | 13 GARDNER degrees | 18 GARDNER degrees |
| COc1ccc(-c2cc3ccc(OC)cc3[nH]2)cc1 [Stabilizer 17] | – | – | – | – | – | – | – | 1 | 1 | 2 | 4 | 8 | 10 | 11 | 12 | 14 | 17 GARDNER degrees | burnt |
| Oc1ccc2[nH]c(-c3ccccc3)cc2c1 [Stabilizer 19] | 1 | 1 | 3 | 9 | 11 | 12 | burnt | – | – | – | – | – | – | – | – | – | – | – |
